Test results published in patent US20200246364A1, “MEDICAL APPLICATION OF COMPOSITION OF FRUCTOSE-1,6-BISPHOSPHATE AND BLOOD CONCENTRATION STABILIZER THEREOF” (ZHEJIANG UNIVERSITY, priority 2017, published 2020).

Experiments:
Assay type in all cases: cell-based, human
SHG-44 = assay: Intracellular glycolytic intermediates (LC-MS/MS) and FBP in culture medium; conditions: SHG-44, 1.6 mM added
Method: (§1) Rat glioma cell strains (C6), human glioma cell strains (U87-MG, U-251, SHG-44) and patient-derived glioma cells (tumor 1, tumor 3) were incubated in a culture medium containing 1.6 mM of trisodium fructose-1,6-bisphosphate, and after 36 h, levels of glycolytic intermediates including glucose-6-phosphate G6P, fructose-1,6-bisphosphate FBP, glyceraldehyde 3-phosphate (GAP), dihydroxyacetone phosphate (DHAP), and […] 3-phosphoglyceric acid PGA in respective cells were measured by using LC-MS/MS; and additionally, the levels of fructose-1,6-bisphosphate in each glioma cell strain at 12 h and 36 h were measured.

U87-MG = assay: as above; conditions: 1.6 mM added
Method: as §1

[1] = system: patient-derived glioma cells Tumor 1; assay: as above; conditions: Tumor 1, 1.6 mM added
Method: as §1

[2] = system: patient-derived glioma cells Tumor 3; assay: as above; conditions: Tumor 3, 1.6 mM added
Method: as §1

U-251 = assay: FBP in culture medium; conditions: U-251, 1.6 mM added

Structure (SMILES): O=C(COP(=O)(O)O)[C@@H](O)[C@H](O)[C@H](O)COP(=O)(O)O [FBP, fructose-1,6-bisphosphate]
- Levels of FBP in the culture medium (SHG-44; 12 h): 1.07 mg/mL
- Levels of FBP in the culture medium (SHG-44; 36 h): 0.72 mg/mL
- Levels of FBP in the culture medium (U87-MG; 12 h): 0.76 mg/mL
- Levels of FBP in the culture medium (U87-MG; 36 h): 0.71 mg/mL
- Levels of FBP in the culture medium ([1]; 12 h): 0.17 mg/mL
- Levels of FBP in the culture medium ([1]; 36 h): 0.18 mg/mL
- Levels of FBP in the culture medium ([2]; 12 h): 0.68 mg/mL
- Levels of FBP in the culture medium ([2]; 36 h): 0.61 mg/mL
- Levels of FBP in the culture medium (U-251; 12 h): 1.35 mg/mL
- Levels of FBP in the culture medium (U-251; 36 h): 1.25 mg/mL
